Values of other authors, collected in US20050288187A1, “Inhibitor development for 4-hydroxyphenylpyruvate dioxygenase, employing tyrosinemia 1 as a model for human diseases mediated by 2-oxoacid utilizing dioxygenases” (priority 2002, published 2005).
For at least one compound, name, drawing or mass did not settle the structure.

Target: T1, plant 4-HPPD (Arabidopsis thaliana, UniProt P93836)
T1 sequence (P93836 1-445): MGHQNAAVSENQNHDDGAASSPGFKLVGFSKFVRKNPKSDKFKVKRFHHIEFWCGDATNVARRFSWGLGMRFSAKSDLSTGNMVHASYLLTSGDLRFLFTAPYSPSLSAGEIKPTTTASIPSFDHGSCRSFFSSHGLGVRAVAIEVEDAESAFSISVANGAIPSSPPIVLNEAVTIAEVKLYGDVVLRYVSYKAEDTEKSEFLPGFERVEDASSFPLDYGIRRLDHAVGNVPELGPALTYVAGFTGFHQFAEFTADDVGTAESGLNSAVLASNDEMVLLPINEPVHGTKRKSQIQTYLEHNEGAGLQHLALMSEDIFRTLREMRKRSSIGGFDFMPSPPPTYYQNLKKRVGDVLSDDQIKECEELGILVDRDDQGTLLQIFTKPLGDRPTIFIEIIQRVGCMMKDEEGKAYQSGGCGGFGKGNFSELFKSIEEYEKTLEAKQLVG
Details: Romagni et al. 2000; cited from earlier work

For `CC(=O)c1c(O)c(C)c(O)c2c1OC1=CC(=O)C(C(C)=O)C(=O)C12C` (stereo not shown) [usnic acid], the “inhibition of plant 4-HPPD” value is listed as “potent inhibitor”.
